Reference: patent US5714576A (Competitive Technologies, Inc., priority 1997, dated 1998)

Assay: general procedure: Boc solid-phase peptide synthesis; p-methylbenzhydrylamine (pMBHA) resin; DCC/HOBt; BOP/DIEA for on-resin cyclization
Conditions: whole synthesis

Substance	isolated yield [%]	final HPLC purity (TLC in three solvents and analytical HPLC (Vydac 218TP104 C18) at 280 nm and 230 nm) [% pure]
Ac-Nle^4, Asp^5, D-Phe^7, Dpr^10 !-alpha-MSH4-10 NH2	36	–
Ac-Nle^4, Asp^5, Lys^10 !-alpha-MSH4-10 NH2	37	–
Ac-Nle^4, D-Phe^7, Lys^10, Gly^11 !-alpha-MSH4-13 NH2 (SEQ. NO. 3)	22	–
Ac-Nle^4, Lys^10 !-alpha-MSH4-10 NH2	40	–
Ac-SYS[Nle]DH[dF]RWKGPV-NH2	–	90
Ac-{Nle^4, Asp^5, D-Phe^7, Dab^10 !-alpha-MSH4-10 NH2	36	–

Non-standard residues stand in square brackets, D forms with d. Nle = CCCC[C@H](N)C(=O)O
